No constants are given. Whether binding was seen depends on the method and setting. Binding can be weak; no strength is given. Where a sequence is shown, tags or fusion partners need not be part of it.
Biological target: NiuDΔ7, C-terminally truncated NiuD fused to the T18 fragment (Helicobacter pylori (strain B128))
Assay: two-hybrid; Bacterial Adenylate Cyclase Two-Hybrid (BACTH) in E. coli BTH101; SlyD fused to T25, Niu proteins fused to T18 (pUT18); LB with IPTG 10^-3 M overnight at 30°C; ß-galactosidase activity in Miller units

B1: SlyD-ΔCter mutant (C-terminal His- and Cys-rich region from residue 155 removed) fused to the T25 fragment (domain or fragment, UniProt O25748 1-154)
chain: MQNHDLESIKQAALIEYEVREQGSSIVLDSNISKEPLEFIIGTNQIIAGLEKAVLKAQIGEWEEVVIAPEEAYGVYESSYLQEVPRDQFEGIELEKGMSVFGQTEDNQTIQAIIKDFSATHVMVDYNHPLAGKTLAFRFKVLGFREVSEEEILA
In the case of B1, the binding is reported as “binds”.

From article PMC7840056
